No constants are given. Whether binding was seen depends on the method and setting. Binding seen in cells or lysates may run through a third protein. A result given as binding can be weak or reduced; the word gives no strength.
B1: Cell division cycle 25A (CDC25A), endogenous (protein, UniProt P30304 1-524)
chain: MELGPEPPHRRRLLFACSPPPASQPVVKALFGASAAGGLSPVTNLTVTMDQLQGLGSDYEQPLEVKNNSNLQRMGSSESTDSGFCLDSPGPLDSKENLENPMRRIHSLPQKLLGCSPALKRSHSDSLDHDIFQLIDPDENKENEAFEFKKPVRPVSRGCLHSHGLQEGKDLFTQRQNSAPARMLSSNERDSSEPGNFIPLFTPQSPVTATLSDEDDGFVDLLDGENLKNEEETPSCMASLWTAPLVMRTTNLDNRCKLFDSPSLCSSSTRSVLKRPERSQEESPPGSTKRRKSMSGASPKESTNPEKAHETLHQSLSLASSPKGTIENILDNDPRDLIGDFSKGYLFHTVAGKHQDLKYISPEIMASVLNGKFANLIKEFVIIDCRYPYEYEGGHIKGAVNLHMEEEVEDFLLKKPIVPTDGKRVIVVFHCEFSSERGPRMCRYVRERDRLGNEYPKLHYPELYVLKGGYKEFFMKCQSYCEPPSYRPMHHEDFKEDLKKFRTKSRTWAGEKSKREMYSRLKKL
B2: CDC25C, endogenous (protein, UniProt P30307 1-473)
chain: MSTELFSSTREEGSSGSGPSFRSNQRKMLNLLLERDTSFTVCPDVPRTPVGKFLGDSANLSILSGGTPKRCLDLSNLSSGEITATQLTTSADLDETGHLDSSGLQEVHLAGMNHDQHLMKCSPAQLLCSTPNGLDRGHRKRDAMCSSSANKENDNGNLVDSEMKYLGSPITTVPKLDKNPNLGEDQAEEISDELMEFSLKDQEAKVSRSGLYRSPSMPENLNRPRLKQVEKFKDNTIPDKVKKKYFSGQGKLRKGLCLKKTVSLCDITITQMLEEDSNQGHLIGDFSKVCALPTVSGKHQDLKYVNPETVAALLSGKFQGLIEKFYVIDCRYPYEYLGGHIQGALNLYSQEELFNFFLKKPIVPLDTQKRIIIVFHCEFSSERGPRMCRCLREEDRSLNQYPALYYPELYILKGGYRDFFPEYMELCEPQSYCPMHHQDHKTELLRCRSQSKVQEGERQLREQIALLVKDMSP

Amino acid sequences for entries named in this document (tags omitted). A change or cut given only in a name is not applied to a line headed by its entry.
UniProt Q13642: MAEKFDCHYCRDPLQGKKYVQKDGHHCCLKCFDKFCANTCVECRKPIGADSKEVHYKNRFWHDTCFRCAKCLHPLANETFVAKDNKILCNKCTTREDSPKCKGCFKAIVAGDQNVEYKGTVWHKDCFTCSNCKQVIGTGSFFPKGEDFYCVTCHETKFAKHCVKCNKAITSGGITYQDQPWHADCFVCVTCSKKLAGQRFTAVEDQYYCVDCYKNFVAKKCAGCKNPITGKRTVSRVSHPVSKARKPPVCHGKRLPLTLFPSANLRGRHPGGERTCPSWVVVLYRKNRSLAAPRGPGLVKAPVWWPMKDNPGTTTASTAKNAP

What was measured:
[1] = target: Flag-tagged four-and-a-half LIM domain protein 1 (FHL1) (human) (UniProt Q13642); test: co-IP; BxPC-3 cells transfected with Flag-FHL1 vectors; anti-Flag IP, Western blot
[2] = target: 14–3-3ξ, endogenous (human (endogenous in BxPC-3)); test: co-IP; BxPC-3 cells transfected with control vectors or Flag-FHL1 vectors; IP by anti-14–3-3ξ or IgG, Western blot

| Binder | binding [1] | binding [2] |
| --- | --- | --- |
| B1 | binds | binds |
| B2 | binds |  |

Reference: paper PMC10547647
